Test results published in PubChem BioAssay AID595 (National Center for Advancing Translational Sciences (NCATS), 2007).
“And” between values parts separate entries of the source, which are not always exact repeats. Equal entries are not always repeated. The campaign covered roughly 71,000 compounds. About 310 (0.44%) were called active. The inconclusive results got no clear call from the source; some entries with a clear call stand among them for comparison. The call rests on the fitted dose curve; in most records, active means well fitted curve in either direction with a large enough effect; inconclusive means small, poorly fitted or top-dose-only effect, or another doubt; inactive means flat fitted curve, though single readings scatter. A potency beside an inconclusive call is a rough fit, not a confirmed value.

Each compound was assayed on Hsp90 C-terminal peptide / TPR2A (Hop) interaction, human (assay: qHTS Assay for Disrupters of an Hsp90 Co-Chaperone Interaction). Settings: AlphaScreen TPR2A-His6 binding biotin-Hsp90 C-terminal peptide; activity change, negative = inhibition: at 57 µM (top of the series) unless noted.
On the % scale 0 is the no-effect control and ±100 the full control effect; potency means the concentration at half of the fitted maximal effect.

Row | SMILES | Potency | activity change, negative = inhibition
1 | CCC(C)c1ccc2oc(-c3ccc(NC(=O)c4ncn[nH]4)cc3)nc2c1 (centres undefined) | inconclusive: 39.8 µM [inhibitor, single point] | –
2 | Cc1nc2cnc(OCc3ccccc3)nc2n(CCc2ccccc2)c1=O | inconclusive: 39.8 µM [activator, single point] | –
3 | O=C(Nc1ccc(N2CCCC2)cc1)c1ccc(Br)o1 | inconclusive: 3.98 µM [inhibitor, partial curve] | –
4 | COc1cc(OC)cc(C(=O)OCn2nnc3ccccc3c2=O)c1 | – | inactive: -0.35%
5 | CCCC1C(C#N)=C(N)Oc2cc(C)n(C)c(=O)c21 (centres undefined) | – | inconclusive: 48%
6 | O=C(Nc1ccc(-c2nc3ncccc3o2)cc1)c1ccco1 | – | inconclusive: 33.2%
7 | CC1CN(c2oc(Cc3cccc4ccccc34)nc2C#N)CC(C)O1 (centres undefined) | inconclusive: 15.8 µM [inhibitor, partial curve] | –
8 | O=C1NC(c2ccccn2)Nc2sc3c(c21)CCC3 (centres undefined) | active: 31.6 µM | –
9 | COc1ccc(N2CSC3=C(C#N)C(c4cc(OC)ccc4OC)CC(=O)N3C2)c(OC)c1 (centres undefined) | inconclusive: 31.6 µM [inhibitor, single point] | –
10 | O=C(NCCc1ccccc1)c1ccccc1NS(=O)(=O)N1CCCC1 | – | inconclusive: 63.3%
11 | NC12CC3CC(CC(C3)C1)C2 | – | inconclusive: 65.3%
12 | O=c1c(-c2cccs2)nc2cnc(Oc3cccc(Cl)c3)nc2n1C[C@H]1CCCO1 | inconclusive: 12.6 µM [activator, partial curve] | –
13 | CCC(C)(C)n1nnnc1C(c1cc2cc(C)cc(C)c2[nH]c1=O)N1CCCC1 (centres undefined) | – | inconclusive: 53%
14 | N#C/C(=C\c1ccc(O)c(O)c1)C(=O)c1ccc(O)c(O)c1 | inconclusive: 12.6 µM [inhibitor, partial curve] | –
15 | Cc1oc2ccc(OCc3ccc(F)cc3)cc2c1C(=O)O | inconclusive: 12.6 µM [inhibitor, partial curve] | –
16 | NCCCc1ccc2oc3ccccc3c2c1 | – | inactive: -3.51% [at 11 µM]
17 | Cc1nc(NC2CCCCC2)c2nc(-c3ccccc3)n(CCCN3CCCCC3C)c2n1 (centres undefined) | – | inactive: -3.15%
18 | Nn1cc(-c2ccccc2)nc1SCC(=O)N1CCN(S(=O)(=O)c2ccccc2)CC1 | – | inactive: -13.4%
19 | CCOC(=O)Cc1csc(NC(=O)CSc2ncnc3c2cnn3-c2ccc(OC)cc2)n1 | – | inactive: -4.39%
20 | COc1ccc(C(=O)Nn2c(SCC(=O)NCc3ccco3)nc3ccccc3c2=O)cc1 | – | inconclusive: 34.3%
21 | COc1ccc(OC)c(C2C(C(C)=O)=C(O)C(=O)N2c2ccc(O)cc2)c1 (centres undefined) | – | inconclusive: 44.9%
22 | CCCS(=O)(=O)NCc1cn2c(C)csc2n1 | – | inconclusive: -7.83%
23 | COc1ccc(N2CC(C(=O)OCC(=O)c3cccc(OC)c3)CC2=O)cc1 (centres undefined) | – | inconclusive: 50%

Row | SMILES | Potency | activity change, negative = inhibition
24 | CC1(C)C(=O)NC2=C1C(=O)C(=O)c1ccccc12 | inconclusive: 31.6 µM [inhibitor, partial curve] | –
25 | Cc1cc(O)ccc1Nc1nc(-c2sc(N)nc2C)cs1 | – | inactive: -1.37%
26 | COc1cccc2c1[C@@H]1CN(CCCCn3c(=O)[nH]c4c(sc5ncc(-c6ccccc6)nc54)c3=O)C[C@H]1CO2 | inconclusive: 31.6 µM [inhibitor, partial curve] | –
27 | Cc1c(C(=O)O)c(O)cc2c1C(=O)c1c(O)c([C@@H]3O[C@H](CO)[C@@H](O)[C@H](O)[C@@H]3O)c(O)c(O)c1C2=O | inconclusive: 39.8 µM [inhibitor, partial curve] | –
28 | CCc1nnc(NC(=O)c2ccc(S(=O)(=O)N(CCOC)CCOC)cc2)o1 | inconclusive: 20 µM [inhibitor, partial curve] | –
29 | N#CC1=C(N)SC(N)=C(C#N)C1c1ccnc2ccccc12 | inconclusive: 31.6 µM [inhibitor, single point] | –
30 | CCn1c(SCC(=O)c2[nH]c(C)c(C(C)=O)c2C)nnc1-c1ccncc1 | – | inconclusive: 30.3%
31 | Cc1ccc(N(CC(=O)NCc2ccc3c(c2)OCO3)S(=O)(=O)c2c(C)noc2C)cc1 | – | inconclusive: 51.5%
32 | O=C(c1cc2nc3c(c(C(F)(F)F)n2n1)CCc1ccccc1-3)N1CCN2CCCC2C1 (centres undefined) | – | inconclusive: 46.2%
33 | CCOC(=O)c1cc(NC(=O)N2CCOCC2)c(C)nc1C | – | inconclusive: 34.1%
34 | O=C1OC2(c3cc(Br)c(O)c(Br)c3Oc3c2cc(Br)c(O)c3Br)c2c(Cl)c(Cl)c(Cl)c(Cl)c21 | inconclusive: 0.794 µM [inhibitor] | –
35 | COc1cccc(-n2ccnc2SCC(=O)Nc2cc(OC)ccc2OC)c1 | inconclusive: 20 µM [inhibitor, partial curve] | –
36 | Cc1cc(C)nc(Nc2ccc(N3CCCC3)cc2)n1 | inconclusive: 25.1 µM [inhibitor, single point] | –
37 | CCc1ccccc1N1CCN(S(=O)(=O)c2ccc(F)c(C)c2)CC1 | inconclusive: 20 µM [activator, single point] | –
38 | Cn1c(=O)cc(OCCCC(=O)Nc2ccc3c(c2)OCCO3)c2ccccc21 | – | inconclusive: 36.7%
39 | CCCC/C=C/C(NC(=O)c1cccs1)c1ccccc1 (centres undefined) | – | inconclusive: 81.2%
40 | CCn1c(SCc2nc(-c3ccccc3)no2)nc2ccccc21 | inconclusive: 25.1 µM [activator, single point] | –
41 | CCn1c(SCC(=O)Nc2nc3c(s2)CCCC3)nnc1-c1ccccc1 | – | inactive: -12.1%
42 | Cc1nc(N)sc1-c1csc(Nc2ccccn2)n1 | – | inactive: -25.1%
43 | CCCC(C)C(=O)Nc1ccc2c(c1)OCCO2 (centres undefined) | – | inconclusive: 58.3%
44 | COc1ccccc1-c1cc(C(F)(F)F)nc(NCc2ccco2)n1 | inconclusive: 25.1 µM [activator, single point] | –
45 | Cc1ccc(NC(=O)CCCCCC2NC(=O)NC2C)cc1 (centres undefined) | active: 0.0126 µM | –
46 | CCOc1ccccc1CNC(=O)c1cc2occc2n1C | inconclusive: 15.8 µM [inhibitor, partial curve] | –

Numbers 3 to 5 of the list above:
Row | SMILES | Potency | activity change, negative = inhibition
3 | O=C(Nc1ccc(N2CCCC2)cc1)c1ccc(Br)o1 | inconclusive: 3.98 µM [inhibitor, partial curve] | –
4 | COc1cc(OC)cc(C(=O)OCn2nnc3ccccc3c2=O)c1 | – | inactive: -0.35%
5 | CCCC1C(C#N)=C(N)Oc2cc(C)n(C)c(=O)c21 (centres undefined) | – | inconclusive: 48%

Following part.

Row | SMILES | Potency | activity change, negative = inhibition
47 | C[C@@]12CCC(=O)C=C1CC[C@H]1[C@@H]2[C@@H](O)C[C@]2(C)[C@@H]1CC[C@@]2(O)C(=O)CO | – | inactive: -1.15% [at 11 µM]
48 | Cc1ccccc1Cn1nc(C)c(NC(=O)c2cc3nc(-c4ccco4)cc(C(F)(F)F)n3n2)c1C | – | inactive: -11.2%
49 | CCc1ccc(N2CCCn3c2nc2c3c(=O)n(CCN3CCOCC3)c(=O)n2C)cc1 | inconclusive: 39.8 µM [inhibitor, single point] | –
50 | N#CCCn1c(=O)c(-c2ccc(Cl)cc2)nc2cnc(Nc3ccccc3)nc21 | – | inactive: -4.76%
51 | Cc1nc(NCCCn2ccnc2)c2oc3ccccc3c2n1 | – | inactive: -9.2%
52 | CC(=O)N1CCN(c2ccc(NC(=O)c3ccc(C(C)(C)C)cc3)cc2)CC1 | – | inconclusive: 34.1%
53 | CCCn1c(SCCN2C(=O)c3ccccc3C2=O)n[nH]c1=O | – | inconclusive: 49.4%
54 | CCOC(=O)C1CCCN(CC(=O)NC2CC2)C1 (centres undefined) | – | inactive: -4.48%
55 | CCn1nc(C(=O)OCC(=O)c2cc(C)n(Cc3cccs3)c2C)c2ccccc2c1=O | – | inactive: -0.032%
56 | Cc1ccc2nc3sc(C(=O)N4CCOCC4)c(N)c3cc2c1 | – | inconclusive: 53%
57 | CCOC(=O)c1c(C)n(C)c2ccc(OCC(N)=O)cc12 | – | inconclusive: 45.3%
58 | O=C(c1cc2cc(Br)ccc2oc1=O)N1CCN(c2ccccn2)CC1 | – | inconclusive: 43.1%
59 | Cn1c(=O)c2c(ncn2CC(=O)N2CCOCC2)n(C)c1=O | – | inconclusive: 35.3%
60 | CC(C)NC[C@H](O)COc1ccc(CC(N)=O)cc1 | – | inconclusive: 66.1% [at 26 µM]
61 | CCOC(=O)c1c(NC(=O)c2ccn(CC)n2)sc2c1CCCC2 | inconclusive: 20 µM [activator, partial curve] | –
62 | CC(C)Oc1ccccc1C1CC(=O)Nc2cc3c(cc21)OCO3 (centres undefined) | – | inconclusive: -3.97%
63 | COC(=O)c1ccc(CSc2nc3ccccc3s2)o1 | inconclusive: 31.6 µM [activator, single point] | –
64 | c1cnc2c(c1)ccc1cccnc12 | active: 398 nM and active: 126 nM and active: 631 nM | –
65 | CCC(CC)C(=O)Nc1cc(OC)c(OC)cc1C(=O)O | – | inconclusive: 48%
66 | CCOC(=O)c1cc2n(c1C)-c1ccccc1C2=O | – | inconclusive: 36.6%
67 | O=C(Nc1cccc(F)c1)c1cc(S(=O)(=O)N2CCC(C(=O)O)CC2)ccc1F | – | inconclusive: 44.2%
68 | Cc1ccc(SCCNS(=O)(=O)c2ccc3c(c2)OCCO3)cc1 | – | inactive: 3.71%
69 | COc1ccc2cc(CCNC(=O)CC(C)(C)C)c(=O)[nH]c2c1 | – | inconclusive: 42.9%

Row | SMILES | Potency | activity change, negative = inhibition
70 | Cc1cc(C)nc(NC(=O)CCCC(=O)O)c1 | – | inconclusive: 39.1%
71 | C[N+](C)(C)CCCCCNCC12CC3CC(CC(C3)C1)C2 | – | inconclusive: 68.4%
72 | CCCCOC(=O)C1=C(C)NC2(O)c3ccccc3C(=O)C12O (centres undefined) | – | inconclusive: 45.1%
73 | COc1ccc(C(=O)N/N=C2/C(=O)c3c(C)cc(C)cc3CC2(C)C)cc1 | – | inconclusive: 79.2% [at 11 µM]
74 | Cc1ccc(-c2nc(-c3ccccc3)no2)c(Cl)c1 | active: 25.1 µM [activator] | –
75 | Cc1nn(-c2ccccc2)c2nc(-c3ccncc3)cc(C(=O)NCc3ccco3)c12 | – | inactive: 4.94%
76 | CC(=O)c1c(COC(=O)c2cccnc2)nc2ccccc2[n+]1[O-] | – | inactive: -10.7%
77 | CCOc1ccccc1OCC(O)CNC (centres undefined) | – | inconclusive: 41.7%
78 | COc1ncc2nc(-c3ccc(F)cc3)c(=O)n(C)c2n1 | – | inactive: 1.26%
79 | COC(=O)c1ccc(C(NC(=O)c2ccco2)[C@]2(C)C[C@H]2C2CCCCC2)cc1 (some centres undefined) | – | inactive: -18.6%
80 | CCOc1ccc2nc(NC(=O)C(CCSC)NS(=O)(=O)c3cccs3)sc2c1 (centres undefined) | – | inactive: -7.73%
81 | CCC1SC(=NC(=O)c2ccc(Cl)c(Cl)c2)NC1=O (centres undefined) | – | inconclusive: 58.6% [at 11 µM]
82 | O=S(=O)(c1ccccc1)N(Cc1nc(-c2ccccc2)no1)C1CCCCC1 | inconclusive: 25.1 µM [activator, partial curve] | –
83 | Cc1ccccc1-c1ccc2ncnc(N3CCOCC3)c2c1 | – | inactive: 13.6%
84 | Cc1ccnc(N2CCC(C(=O)Nc3ccc(Oc4ccccc4)cc3)CC2)n1 | – | inactive: -1.38%
85 | Cc1ccc(C(C)C)cc1C(=O)CC1(O)C(=O)N(C)c2ccccc21 (centres undefined) | – | inactive: 0.902%
86 | c1cc(CSc2ncnc3nc[nH]c23)ccn1 | – | inactive: -4.39% [at 11 µM]
87 | Cc1cccc2cc(C#N)c(NCCCn3ccnc3)nc12 | inconclusive: 31.6 µM [inhibitor, single point] | –
88 | O=C(OCC#CCSc1nc2ccccc2o1)c1ccco1 | – | inconclusive: 122%
89 | CSc1ccc(S(=O)(=O)Nc2ccc(NC(C)=O)cc2)cc1 | – | inconclusive: 38%
